Experimental data published in article PMC9358474.
These are yes or no findings as the source states them, for the method shown. In cells and extracts the contact can be indirect. Some binding calls cover weakened binding; strength is not graded here.

By UniProt entry, the sequences of proteins in these tests, tags left out.
UniProt Q9Z0Z7: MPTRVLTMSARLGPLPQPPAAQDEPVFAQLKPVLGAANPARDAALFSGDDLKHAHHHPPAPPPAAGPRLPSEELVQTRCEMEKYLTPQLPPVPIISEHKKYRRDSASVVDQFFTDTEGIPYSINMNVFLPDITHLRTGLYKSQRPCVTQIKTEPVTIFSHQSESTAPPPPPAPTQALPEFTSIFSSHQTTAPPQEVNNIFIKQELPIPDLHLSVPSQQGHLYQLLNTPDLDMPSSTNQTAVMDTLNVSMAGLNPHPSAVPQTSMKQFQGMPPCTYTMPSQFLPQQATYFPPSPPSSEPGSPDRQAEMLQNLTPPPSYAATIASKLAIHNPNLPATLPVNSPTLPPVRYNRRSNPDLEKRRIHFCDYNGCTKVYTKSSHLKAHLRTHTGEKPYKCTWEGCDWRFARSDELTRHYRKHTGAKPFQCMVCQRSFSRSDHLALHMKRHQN
UniProt Q9DBH0: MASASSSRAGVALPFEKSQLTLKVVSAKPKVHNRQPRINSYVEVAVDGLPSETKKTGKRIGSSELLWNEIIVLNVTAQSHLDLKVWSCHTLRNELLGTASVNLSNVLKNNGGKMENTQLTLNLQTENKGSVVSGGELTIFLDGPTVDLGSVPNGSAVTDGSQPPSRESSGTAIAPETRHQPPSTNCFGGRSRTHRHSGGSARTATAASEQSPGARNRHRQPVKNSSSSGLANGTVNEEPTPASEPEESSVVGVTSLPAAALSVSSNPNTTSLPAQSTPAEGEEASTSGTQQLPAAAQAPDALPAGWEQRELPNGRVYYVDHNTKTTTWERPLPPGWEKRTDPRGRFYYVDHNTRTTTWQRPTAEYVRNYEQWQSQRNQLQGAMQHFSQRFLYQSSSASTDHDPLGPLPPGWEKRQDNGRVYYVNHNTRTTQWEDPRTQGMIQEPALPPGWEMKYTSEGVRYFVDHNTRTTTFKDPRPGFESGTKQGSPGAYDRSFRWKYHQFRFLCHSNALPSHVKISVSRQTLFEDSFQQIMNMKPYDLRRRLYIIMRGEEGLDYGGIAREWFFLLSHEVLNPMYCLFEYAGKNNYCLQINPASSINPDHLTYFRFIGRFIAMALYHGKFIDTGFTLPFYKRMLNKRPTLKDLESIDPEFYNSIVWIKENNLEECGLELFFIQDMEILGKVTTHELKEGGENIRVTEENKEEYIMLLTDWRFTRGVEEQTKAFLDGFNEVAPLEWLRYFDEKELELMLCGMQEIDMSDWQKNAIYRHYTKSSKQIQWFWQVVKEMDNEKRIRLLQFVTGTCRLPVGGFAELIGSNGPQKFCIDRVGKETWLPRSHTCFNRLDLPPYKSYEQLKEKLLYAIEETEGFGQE
UniProt O08586: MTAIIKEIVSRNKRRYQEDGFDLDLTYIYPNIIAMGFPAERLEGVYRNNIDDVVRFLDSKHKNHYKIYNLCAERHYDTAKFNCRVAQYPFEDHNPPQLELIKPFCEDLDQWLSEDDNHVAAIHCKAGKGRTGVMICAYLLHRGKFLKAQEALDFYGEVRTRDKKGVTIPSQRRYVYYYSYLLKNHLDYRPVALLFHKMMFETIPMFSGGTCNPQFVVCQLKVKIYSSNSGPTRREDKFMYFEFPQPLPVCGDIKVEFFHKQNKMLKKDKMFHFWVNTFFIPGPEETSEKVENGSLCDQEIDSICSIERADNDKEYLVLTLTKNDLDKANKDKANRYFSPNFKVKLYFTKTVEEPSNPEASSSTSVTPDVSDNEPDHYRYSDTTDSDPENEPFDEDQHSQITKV

How the values were obtained:
[1] = molecular target: Kruppel-like factor 5 (KLF5), endogenous (mouse (endogenous in mDPCs and molars)) (UniProt Q9Z0Z7); experiment: co-IP; endogenous proteins in mDPC lysates; primary antibody or control IgG at 4 °C overnight, protein A/G magnetic beads, Western blot
[2] = molecular target: WW domain-containing E3 Ubiquitin-protein ligase 2 (WWP2), endogenous (mouse (endogenous in mDPCs and molars)) (UniProt Q9DBH0); experiment: as above
[3] = molecular target: Kruppel-like factor 5 (KLF5), endogenous (mouse (endogenous in mDPCs and molars)) (UniProt Q9Z0Z7); experiment: proximity ligation; in situ PLA (Duolink) on paraffin sections of PN5 mouse molars; anti-PTEN mouse monoclonal with rabbit polyclonal anti-KLF5 or anti-WWP2
[4] = molecular target: WW domain-containing E3 Ubiquitin-protein ligase 2 (WWP2), endogenous (mouse (endogenous in mDPCs and molars)) (UniProt Q9DBH0); experiment: as above
[5] = molecular target: Kruppel-like factor 5 (KLF5), overexpressed (UniProt Q9Z0Z7); experiment: co-IP; overexpressed proteins in lysates of transfected HEK293E cells; primary antibody or control IgG at 4 °C overnight, protein A/G magnetic beads, Western blot
[6] = molecular target: WW domain-containing E3 Ubiquitin-protein ligase 2 (WWP2), overexpressed (UniProt Q9DBH0); experiment: as above

Measured: binding

phosphatase and tensin homolog (PTEN), endogenous (from UniProt O08586 1-403)
binds: [1] | [2] | [3] | [4]

phosphatase and tensin homolog (PTEN), overexpressed (from UniProt O08586 1-403)
binds: [5] | [6]
